Construct, isoform or probe ends are uncertain for at least one entry. For some assays here: Where a protein sequence is shown, tags need not be part of it.

What all share (test): binding assay
For data set [1], the system named is Group II Intron-RT (unspecified). Particulars: concatemeric cDNA, 55 C; purified recombinant protein.
Data set [2] deals with Induro RT (Group II Intron-RT). Particulars: concatemeric cDNA >10 kb, 55 C 1 h; higher RT-qPCR sensitivity in FIG. 5B; purified recombinant protein; protein details: New England Biolabs. (Real-time PCR tracks product formation cycle by cycle.)
For data set [3], the target named is T1, TGIRT (Group II Intron-RT) (UniProt E2GM63).
T1 sequence (looked up, limits assumed): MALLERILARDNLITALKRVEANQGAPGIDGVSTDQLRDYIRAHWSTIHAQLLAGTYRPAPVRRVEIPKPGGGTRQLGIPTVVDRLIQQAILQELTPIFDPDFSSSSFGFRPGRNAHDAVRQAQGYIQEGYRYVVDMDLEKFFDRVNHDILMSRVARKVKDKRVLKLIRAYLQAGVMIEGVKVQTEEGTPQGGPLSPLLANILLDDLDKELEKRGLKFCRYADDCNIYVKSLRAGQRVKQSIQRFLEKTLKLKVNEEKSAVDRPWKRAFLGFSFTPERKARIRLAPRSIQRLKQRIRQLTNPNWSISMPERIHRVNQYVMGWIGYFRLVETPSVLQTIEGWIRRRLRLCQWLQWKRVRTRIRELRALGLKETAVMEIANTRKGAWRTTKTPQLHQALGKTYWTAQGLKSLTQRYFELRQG
Particulars: concatemeric cDNA >10 kb, 55 C 1 h; purified recombinant protein; protein details: Ingex.

For the sequence “AAAATCCGTTGACCTTAAACGGTCGTGTGGGTTCAAGTCCCTCCACCCCCACGCCGGAAACGCAATAGCCGAAAAACAAAAAACAAAAAAACCCCCCTCTCCCTCCCCCCCTAACGTTACTGGCCGAAGCCGCTTGGAATAAGGCCGGTGTGCGTTTGTCTATATGTTATTTTCCACCATATTGCCGTCTTTTGGCAATGTGAGGGCCCGGAAACCTGGCCCTGTCTTCTTGACGAGCATTCCTAGGGGTCTTTCCCCTCTCGCCAAAGGAATGCAAGGTCTGTTGAATGTCGTAAAAAAACAAAAAACAAAACGGCTATTATGCGTTACCGGCGAGACGCTACGGACTT / TCCAGAGGAACTGCTTCCTTC [circRNA 0.4 kb (Example 2) with DNA primer]”, the binding result in data set [1] is recorded as “binds”.
As to “AAAATCCGTTGACCTTAAACGGTCGTGTGGGTTCAAGTCCCTCCACCCCCACGCCGGAAACGCAATAGCCGAAAAACAAAAAACAAAAAAACCCCCCTCTCCCTCCCCCCCTAACGTTACTGGCCGAAGCCGCTTGGAATAAGGCCGGTGTGCGTTTGTCTATATGTTATTTTCCACCATATTGCCGTCTTTTGGCAATGTGAGGGCCCGGAAACCTGGCCCTGTCTTCTTGACGAGCATTCCTAGGGGTCTTTCCCCTCTCGCCAAAGGAATGCAAGGTCTGTTGAATGTCGTGAAGGAAGCAGTTCCTCTGGAAGCTTCTTGAAGACAAACAACGTCTGTAGCGACCCTTTGCAGGCAGCGGAACCCCCCACCTGGCGACAGGTGCCTCTGCGGCCAAAAGCCACGTGTATAAGATACACCTGCAAAGGCGGCACAACCCCAGTGCCACGTTGTGAGTTGGATAGTTGTGGAAAGAGTCAAATGGCTCTCCTCAAGCGTATTCAACAAGGGGCTGAAGGATGCCCAGAAGGTACCCCATTGTATGGGATCTGATCTGGGGCCTCGGTGCACATGCTTTACATGTGTTTAGTCGAGGTTAAAAAACGTCTAGGCCCCCCGAACCACGGGGACGTGGTTTTCCTTTGAAAAACACGATGATAATATGGCCACAACCATGGGAGTCAAAGTTCTGTTTGCCCTGATCTGCATCGCTGTGGCCGAGGCCAAGCCCACCGAGAACAACGAAGACTTCAACATCGTGGCCGTGGCCAGCAACTTCGCGACCACGGATCTCGATGCTGACCGCGGGAAGTTGCCCGGCAAGAAGCTGCCGCTGGAGGTGCTCAAAGAGATGGAAGCCAATGCCCGGAAAGCTGGCTGCACCAGGGGCTGTCTGATCTGCCTGTCCCACATCAAGTGCACGCCCAAGATGAAGAAGTTCATCCCAGGACGCTGCCACACCTACGAAGGCGACAAAGAGTCCGCACAGGGCGGCATAGGCGAGGCGATCGTCGACATTCCTGAGATTCCTGGGTTCAAGGACTTGGAGCCCATGGAGCAGTTCATCGCACAGGTCGATCTGTGTGTGGACTGCACAACTGGCTGCCTCAAAGGGCTTGCCAACGTGCAGTGTTCTGACCTGCTCAAGAAGTGGCTGCCGCAACGCTGTGCGACCTTTGCCAGCAAGATCCAGGGCCAGGTGGACAAGATCAAGGGGGCCGGTGGTGACTAAAAAAAACAAAAAACAAAACGGCTATTATGCGTTACCGGCGAGACGCTACGGACTT / TCCAGAGGAACTGCTTCCTTC [circRNA 1.3 kb with DNA primer]”, the binding result in data set [2], in data set [3] and in data set [1] was “binds” throughout.
In the case of “AAAATCCGTTGACCTTAAACGGTCGTGTGGGTTCAAGTCCCTCCACCCCCACGCCGGAAACGCAATAGCCGAAAAACAAAAAACAAAAAAACCCCCCTCTCCCTCCCCCCCTAACGTTACTGGCCGAAGCCGCTTGGAATAAGGCCGGTGTGCGTTTGTCTATATGTTATTTTCCACCATATTGCCGTCTTTTGGCAATGTGAGGGCCCGGAAACCTGGCCCTGTCTTCTTGACGAGCATTCCTAGGGGTCTTTCCCCTCTCGCCAAAGGAATGCAAGGTCTGTTGAATGTCGTTGGAGGTGCTCAAAGAGATGGAAGCCAATGCCCGGAAAGCTGGCTGCACCAGGGGCTGTCTGATCTGCCTGTCCCACATCAAGTGCACGCCCAAGATGAAGAAGTTCATCCCAGGACGCTGCCACACCTACGAAGGCGACAAAGAGTCCGCACAGGGCGGCATAGGCGAGGCGATCGTCGACATTCCTGAGATTCCTGGGTTCAAGGACTTGGAGCCCATGGAGCAGTTCATCGCACAGGTCGATCTGTGTGTGGACTGCACAACTGGCTGCCTCAAAGGGCTTGCCAACGTGCAGTGTTCTGACCTGCTCAAGAAGTGGCTGCCGCAACGCTGTGCGACCTTTGCCAGCAAGATCCAGGGCCAGGTGGACAAGATCAAGGGGGCCGGTGGTGACTAAAAAAAACAAAAAACAAAACGGCTATTATGCGTTACCGGCGAGACGCTACGGACTT / TCCAGAGGAACTGCTTCCTTC [circRNA 0.8 kb with DNA primer]”, in data set [1], the binding result is listed as “binds”.

The values are drawn from patent US20230141630.
